The target of test [1] is T1, bZIP30-YFP (Arabidopsis thaliana) (UniProt Q9SIG8).
T1 sequence: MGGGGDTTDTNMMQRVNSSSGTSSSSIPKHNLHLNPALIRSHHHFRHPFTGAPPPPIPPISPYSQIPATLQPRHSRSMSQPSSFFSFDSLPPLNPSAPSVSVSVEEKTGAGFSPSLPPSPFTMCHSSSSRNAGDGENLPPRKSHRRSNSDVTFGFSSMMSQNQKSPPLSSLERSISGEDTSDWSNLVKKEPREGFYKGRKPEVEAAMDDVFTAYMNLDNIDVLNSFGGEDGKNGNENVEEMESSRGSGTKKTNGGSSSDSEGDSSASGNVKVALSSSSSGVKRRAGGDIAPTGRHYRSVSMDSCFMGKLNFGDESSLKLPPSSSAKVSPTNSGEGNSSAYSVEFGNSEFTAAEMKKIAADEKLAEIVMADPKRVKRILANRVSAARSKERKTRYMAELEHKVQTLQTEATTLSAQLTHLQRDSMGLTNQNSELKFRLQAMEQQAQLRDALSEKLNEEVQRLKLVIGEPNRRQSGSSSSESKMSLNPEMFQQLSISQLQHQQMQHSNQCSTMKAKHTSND
Nature of the test: co-IP; protein extract of 10-day-old pbZIP30::bZIP30-YFP and Col-0 seedlings; bZIP30-YFP precipitated with GFP-Trap agarose beads, 4 °C, 1 hour; blots with anti-GFP and anti-KIN10.

The chains behind the UniProt entries cited, without tags or fusion partners.
UniProt Q8S307: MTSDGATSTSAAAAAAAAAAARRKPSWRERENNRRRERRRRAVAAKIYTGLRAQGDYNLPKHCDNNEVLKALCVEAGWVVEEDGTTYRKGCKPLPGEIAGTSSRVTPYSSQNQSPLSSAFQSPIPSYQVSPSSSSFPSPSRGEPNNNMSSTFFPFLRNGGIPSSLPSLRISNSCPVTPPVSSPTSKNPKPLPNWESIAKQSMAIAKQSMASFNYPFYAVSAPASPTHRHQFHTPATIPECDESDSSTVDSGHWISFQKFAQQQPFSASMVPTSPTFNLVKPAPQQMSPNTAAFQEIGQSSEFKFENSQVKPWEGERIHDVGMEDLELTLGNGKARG

Test [2] addresses T2, BD-KIN10 (Arabidopsis thaliana) (UniProt Q38997).
T2 sequence: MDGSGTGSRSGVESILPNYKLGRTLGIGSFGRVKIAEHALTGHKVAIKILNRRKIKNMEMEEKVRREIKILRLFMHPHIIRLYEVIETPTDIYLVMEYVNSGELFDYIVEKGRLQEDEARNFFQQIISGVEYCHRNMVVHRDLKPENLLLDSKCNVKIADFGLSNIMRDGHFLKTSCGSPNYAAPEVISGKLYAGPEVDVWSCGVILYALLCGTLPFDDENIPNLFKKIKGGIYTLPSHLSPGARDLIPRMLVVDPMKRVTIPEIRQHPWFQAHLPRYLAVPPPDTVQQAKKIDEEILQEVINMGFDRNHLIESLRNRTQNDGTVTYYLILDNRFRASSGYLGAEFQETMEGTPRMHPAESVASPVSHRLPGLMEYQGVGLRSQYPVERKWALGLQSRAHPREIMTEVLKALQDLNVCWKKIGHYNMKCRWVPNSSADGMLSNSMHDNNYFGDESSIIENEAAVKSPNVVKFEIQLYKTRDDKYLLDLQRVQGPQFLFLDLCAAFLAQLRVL
Description: two-hybrid; yeast; BD-KIN10 as bait; BD-KIN10 with empty-AD vector as negative control.

The target in test [3] is T3, KIN10-nYFP (Arabidopsis thaliana) (UniProt Q38997).
T3 sequence: T2 sequence
Nature of the test: split reporter; ratiometric BiFC (2in1 vector, RFP as reference) in tobacco leaf epidermal cells; at least 48 h at 22 °C after injection; mock or 1 mM H2O2 for 3 h; with or without co-expressed p35S::KIN10-CFP.

For test [4], the target named is BZR1-nYFP (Arabidopsis thaliana) (UniProt Q8S307). The test is described as above.
The target of test [5] is T4, bZIP30-cYFP (Arabidopsis thaliana) (UniProt Q9SIG8).
T4 sequence: T1 sequence
The description is as above.

Experimental findings from paper PMC11178795, “Hydrogen peroxide is required for light-induced stomatal opening across different plant species” (Nature Communications, 2024) are described below.

Changes are numbered by the printed parent chain. Names may count otherwise. Results are given in words; binding and its absence hold for the method and conditions named. For part of these data: Binding seen in cells or lysates may run through a third protein. Some entries that bind do so weakly or less than the wild type. Where a sequence is shown, tags or fusion partners need not be part of it.

B1: MBP-KIN10 (enzyme, Arabidopsis thaliana, UniProt Q38997 1-512, looked up)
chain: T2 sequence
notes: KIN10, catalytic subunit of SnRK1, Arabidopsis, AT3G01090; full-length coding region without stop codon; destination vector pMAL2CGW (N-MBP); source: Escherichia coli, purified (amylose resin); not shown: MBP, N-terminal, kept
As for B1, the binding result in test [1] is reported as “binds”.

B2: bZIP30 fused to the GAL4 activation domain (protein, UniProt Q9SIG8 1-519)
chain: T1 sequence
For B2, in test [2], the binding entry is listed as “binds”.

B3: bZIP30-cYFP (protein, UniProt Q9SIG8 1-519)
chain: T1 sequence
For the molecule B3, the binding entry in test [3], in test [4] and in test [5] was “binds” in each case.

B4: bZIP30^S18/T22A-cYFP (protein, UniProt Q9SIG8 1-519)
chain: T1 sequence with S18A, T22A
With B4, the binding result in test [5] is recorded as “binds”.
